# From patent publication US8741947B2, “Biologically active macrolides, compositions, and uses thereof” (The United States of America, as represented by the …, priority 2000, dated 2014)
# Test system: Chromaffin Granule Membrane V-ATPase
# Assay: V-ATPase inhibitory assay, chromaffin granule membrane
# Assay type: biochemical, bovine
# Settings: ratio of Ki CGM to Ki NCVM
# Method: The V-ATPase inhibitory assays were performed on representative compound(s) of the present invention using non-mammalian or mammalian (e.g., bovine cromaffin granule) V-ATPases as described by Bowman et al., Proc. Natl. Acad. Sci. USA, 85, 7972-7976, 1988.
row,Compound,Ratio GCM/NC
1,"CO/C1=C\C(C)=C\[C@@H](C)[C@@H](O)[C@@H](C)C/C(C)=C/C=C/[C@H](OC)[C@@H]([C@@H](C)[C@@H](O)[C@H](C)[C@@]2(O)C[C@@H](O)[C@H](C)[C@@H](C(C)C)O2)OC1=O [Bafilomycin A1, bafilomycin A1, reference compound]",0.5
2,"COC(=O)C(C)(C)C(O)C(C)C(=O)C(C)(C)C=CC(=O)NC(CC(C)C)C(O)C(C)C=C(C)C(O)C(C)CCC(O)C(C)C(=O)NC(C(C)O)C1OC(=O)C(C(O)C(=O)O)NC(=O)C=CC=CCCC=CC=CCC2CC(C)CC(CC(O)C(C)C(O)C(C)=CC(C)C(O)C(C)=CCC(OC(=O)CC(O)C(=O)O)C1C)O2 (stereo not drawn) [Chondropsin A, 73-deoxy, 73-deoxychondropsin A]",30
3,"COC(=O)C(C)(C)C(O)C(C)C(=O)C(C)(C)C=CC(=O)NC(C(O)C(C)C)C(O)C(C)C=C(C)C(O)C(C)CCC(O)C(C)C(=O)NC(C(C)O)C1OC(=O)C(C(O)C(=O)O)NC(=O)C=CC=CCCC=CC=CCC2CC(C)CC(CC(O)C(C)C(O)C(C)=CC(C)C(O)C(C)=CCC(OC(=O)CC(O)C(=O)O)C1C)O2 (stereo not drawn) [Chondropsin A, chondropsin A]",>13
4,"COC(=O)C(O)CC(=O)OC1CC=C(C)C(O)C(C)C=C(C)C(O)C(C)C(O)CC2CC(C)CC(CC=CC=CCCC=CC=CC(=O)NC(C(O)C(=O)OC)C(=O)OC(C(NC(=O)C(C)C(O)CCC(C)C(O)C(C)=CC(C)C(O)C(NC(=O)C=CC(C)(C)C(=O)C(C)C(O)C(C)(C)C(=O)OC)C(O)C(C)C)C(C)O)C1C)O2 (stereo not drawn) [Chondropsin A, dimethyl ester, chondropsin A dimethyl ester]",10
5,"COC(=O)C(C)(C)C(O)C(C)C(=O)C(C)(C)C=CC(=O)NC(C(O)C(C)C)C(O)C(C)C=C(C)C(O)C(C)CCC(O)C(C)C(=O)NC(C(C)O)C1OC(=O)C(C(O)C(=O)O)NC(=O)C=CC=CCCC=CC=CCC2CC(C)CC(CC(O)C(C)C(O)C(C)=CC(C)C(O)C(C)=CCC(O)C1C)O2 (stereo not drawn) [Chondropsin B, chondropsin B]",30
6,"CC1=CCC(OC(=O)CC(O)C(=O)O)C(C)C(C(NC(=O)C(C)C(O)CCC(C)C(O)C(C)=CC(C)C(O)C(CC(C)C)NC(=O)C=CC(C)(C)C(=O)C(C)C(O)C(C)C)C(C)O)OC(=O)C(C(O)C(=O)O)NC(=O)C=CC=CCCC=CC=CCC2CC(C)CC(CC(O)C(C)C(O)C(C)=CC(C)C1O)O2 (stereo not drawn) [Chondropsin C, chondropsin C]",38
7,"COC(=O)C(C)(C)C(O)C(C)C(=O)C(C)(C)C=CC(=O)NC(C(O)C(C)C)C(O)C(C)C=C(C)C(O)C(C)CCC(O)C(C)C(=O)NC1C(C)OC(=O)C(C(O)C(=O)O)NC(=O)C=CC=CCCC=CC=CCC2CC(C)CC(CC(O)C(C)C(O)C(C)=CC(C)C(O)C(C)=CCC(OC(=O)CC(O)C(=O)O)C(C)C1O)O2 (stereo not drawn) [Chondropsin D, chondropsin D]",>71
8,"C/C=C/[C@H]1O[C@@](O)([C@@H](C)[C@H](O)[C@H](C)[C@H]2OC(=O)/C(OC)=C/C(C)=C/[C@@H](C)[C@@H](O)[C@@H](CC)[C@@H](O)[C@H](C)C/C(C)=C/C=C/[C@@H]2OC)C[C@@H](O[C@H]2C[C@@H](O)[C@H](OC(N)=O)[C@@H](C)O2)[C@@H]1C [Concanamycin A, concanamycin A, reference compound]",1.5
9,"CC/C=C\C=C/C(=O)N/C=C/C[C@H]1C[C@@H](O)[C@@H](C)C/C=C/Cc2cccc(O)c2C(=O)O1 [Salicylihalamide A, salicylihalamide A, reference compound]",<0.0007
